In PubChem BioAssay AID540276 (National Center for Advancing Translational Sciences (NCATS), 2011):
The campaign covered roughly 300,000 compounds. About 5,400 (1.8%) were called active. Inconclusive results, whose numbers are uncertain, are shown with a selection of clear calls. The call rests on the fitted dose curve; tested in HEK293 cells. A potency beside an inconclusive call is a rough fit, not a confirmed value.

Experiment: qHTS for inhibitors of binding or entry into cells for Marburg Virus
Details: Marburg virus pseudotyped entry inhibition, cell reporter; activity change, negative = inhibition: at 37.8 µM (top of the series) unless noted
On the % scale 0 is the no-effect control and ±100 the full control effect; potency means the concentration at half of the fitted maximal effect.

Q: For `Cc1ccc(C2CC(=O)C=C(O)C2)cc1` (stereo not drawn), which “activity change, negative = inhibition” value is on record?
A: inactive: 2% [at 46.1 µM]

Q: For `COc1cc(C2C3=C(COC3=O)Oc3cc4c(cc32)OCO4)ccc1OC(C)=O` (stereo not drawn), which “activity change, negative = inhibition” value is on record?
A: inactive: -9.84%

Q: With `Cc1c(C(=O)O)sc(S(=O)(=O)N2CCN(C(=O)Cc3ccccc3Cl)CC2)c1C(=O)O` as the compound, how does the Potency read?
A: inconclusive: 1 µM [activator, full curve, poor fit]

Q: Which Potency does the source give for `COC(=O)C1(C(=O)OC)Cc2conc2[C@@H]1c1ccccc1` here?
A: inactive

Q: Which Potency does the source give for `COc1ccc(CCn2c(C)cc(C(=O)CN3C(=O)C(=O)N(C4CCCC4)C3=O)c2C)cc1OC` here?
A: inconclusive: 35.5 µM [inhibitor, single point]

Q: For `O=C1NC(c2cccc([N+](=O)[O-])c2)=CCN1c1ccccc1O`, which Potency is on record?
A: inconclusive: 3.98 µM [activator, full curve, poor fit]

Q: For `CSc1nc(N(C)NC(=O)c2ccccc2)c2ccccc2n1`, which Potency is on record?
A: inconclusive: 0.355 µM [inhibitor, full curve]

Q: For `Cc1ccc(C(=O)CCNc2ccccc2)o1`, which “activity change, negative = inhibition” value is on record?
A: inactive: -1.26%

Q: For `Cc1ccc2nc(SCc3nc(-c4ccccc4C)no3)[nH]c2c1`, which “activity change, negative = inhibition” value is on record?
A: inactive: -8.22% [at 46.1 µM]

Q: With `Cc1c(C(=O)Oc2ccc(F)cc2)sc2ncn(Cc3cccc(F)c3)c(=O)c12` as the compound, how does the Potency read?
A: inconclusive: 3.98 µM [activator, full curve, poor fit]

Q: Which “activity change, negative = inhibition” value does the source give for `COc1ccccc1N(C)S(=O)(=O)c1ccc(C(=O)NCC(C)C)cc1` here?
A: inactive: -12.5%

Q: Which “activity change, negative = inhibition” value does the source give for `CC1CN(C(=O)c2scc3c2OCCO3)CC(C)O1` (stereo not drawn) here?
A: inactive: 20.2% [at 46.1 µM]

Q: Which Potency does the source give for `O=C(Cn1cnc2c(cnn2-c2ccc(Cl)cc2)c1=O)N1CCN(c2ccccc2)CC1` here?
A: inconclusive: 8.91 µM [inhibitor, partial curve, poor fit]

Q: For `COc1ccccc1C(=O)NC1CCN(C(=O)Nc2ccc(C)cc2)CC1`, which “activity change, negative = inhibition” value is on record?
A: inactive: -3.7%

Q: With `O=[N+]([O-])c1cccc(/C=N/N2CCN(Cc3ccc(Cl)cc3)CC2)c1` as the compound, how does the Potency read?
A: inconclusive: 35.5 µM [inhibitor, single point]

Q: Which “activity change, negative = inhibition” value does the source give for `COc1ccc(NS(=O)(=O)c2ccc(NS(=O)(=O)c3cccs3)cc2)c(OC)c1` here?
A: inactive: -2.81% [at 46.1 µM]

Q: With `CCN1CCCC1CNS(=O)(=O)c1c(C)cc(C)cc1C` (stereo not drawn) as the compound, how does the Potency read?
A: inconclusive: 0.631 µM [inhibitor, single point]

Q: Which Potency does the source give for `CC(C)[C@H]1C(=O)N2CCC[C@H]2[C@]2(O)O[C@](NC(=O)[C@@H]3C=C4c5cccc6[nH]cc(c56)C[C@H]4N(C)C3)(C(C)C)C(=O)N12` here?
A: inconclusive: 5.8 µM [inhibitor, partial curve, poor fit]

Q: For `COc1ccc(-c2noc(-c3ccc4c(c3)OCO4)n2)cc1`, which Potency is on record?
A: inconclusive: 0.517 µM [activator, full curve, poor fit]

Q: For `CCCCCC1=CC2=C(C(=O)OC)C(c3ccccc3)NC(=O)N2CC1` (stereo not drawn), which “activity change, negative = inhibition” value is on record?
A: inactive: 1.25% [at 14.2 µM]

Q: With `Fc1ccc(CN2C3=NCCN3c3ccccc32)cc1` as the compound, how does the Potency read?
A: inconclusive: 35.5 µM [inhibitor, single point]

Q: Which “activity change, negative = inhibition” value does the source give for `Cc1ccc(C2=Nc3ccccc3N=C(c3ccc([N+](=O)[O-])cc3)C2)c(O)c1` here?
A: inactive: -12.6%

Q: For `CN1CCN(Cc2cc(Cl)c3cccnc3c2OC(=O)c2cccs2)CC1`, which Potency is on record?
A: inconclusive: 14.1 µM [inhibitor, single point]

Q: With `Cc1sc(NC(=O)c2c(F)cccc2F)nc1-c1ccccc1` as the compound, how does the Potency read?
A: inconclusive: 1.41 µM [inhibitor, partial curve, poor fit]

Q: Which Potency does the source give for `COc1ccc(C(=O)Nc2cccc(C(C)=O)c2)cc1OC` here?
A: inconclusive: 29.1 µM [activator, single point]

Q: With `COc1ccc(CC(=O)OCC(=O)c2c(N)n(C)c(=O)n(C)c2=O)cc1OC` as the compound, how does the Potency read?
A: inconclusive: 35.5 µM [inhibitor, single point]

Q: For `CC(=O)[C@]12C[C@@H]3CCN(C(=O)N[C@@H]1c1ccccc1)[C@@]32C`, which Potency is on record?
A: inconclusive: 3.76 µM [inhibitor, single point]

Q: For `O=C(Cc1sc(Nc2ccccc2)nc1-c1ccccc1)NCc1ccccn1`, which “activity change, negative = inhibition” value is on record?
A: inactive: 16.1% [at 46.1 µM]

Q: With `Cc1ccc(C(C)C)c(OCCNS(C)(=O)=O)c1` as the compound, how does the “activity change, negative = inhibition” value read?
A: inactive: 1.29%

Q: Which Potency does the source give for `CCOC(=O)C1=CN(CCCc2cn(Cc3ccccc3)nn2)C(=O)NC1c1ccccc1` (stereo not drawn) here?
A: inconclusive: 0.015 µM [activator, full curve, poor fit]

Q: Which Potency does the source give for `CCOC(=O)Cc1nnc(NC(=O)c2ccccc2OCC)s1` here?
A: inactive

Q: With `COc1ccc(N(C)S(=O)(=O)c2cccc(C(=O)OCC(=O)c3c(N)n(C)c(=O)n(C)c3=O)c2)cc1` as the compound, how does the Potency read?
A: inconclusive: 35.5 µM [inhibitor, single point]

Q: Which Potency does the source give for `CCC(C(=O)Nc1cc(C(=O)Nc2cc(C)ccn2)ccc1Cl)c1ccccc1` (stereo not drawn) here?
A: inconclusive: 11.2 µM [inhibitor, partial curve, poor fit]

Q: With `O=C(CN1CCN(c2ccccc2O)CC1)NC(=O)NCc1ccco1` as the compound, how does the Potency read?
A: inconclusive: 0.1 µM [activator, full curve, poor fit]

Q: For `COc1cccc(CCNC(=O)c2c(O)nc3cc(C)ccn3c2=O)c1`, which “activity change, negative = inhibition” value is on record?
A: inactive: -5.22% [at 46.1 µM]

Q: For `CS(=O)(=O)N(CCc1ccccc1)CC(=O)NCc1ccccc1`, which Potency is on record?
A: inconclusive: 1.78 µM [inhibitor, full curve]

Q: With `CCOc1ccc(NS(=O)(=O)c2cc(NC(=O)c3ccc(C)cc3)ccc2Cl)cc1` as the compound, how does the Potency read?
A: inconclusive: 0.631 µM [inhibitor, full curve, poor fit]

Q: With `O=C1C(Cl)=C(N2CCOCC2)C(=O)N1c1cccc(Cl)c1` as the compound, how does the “activity change, negative = inhibition” value read?
A: inactive: -22.4%

Q: Which Potency does the source give for `O=C(CCNS(=O)(=O)c1cccc2nsnc12)NCCC1=CCCCC1` here?
A: inconclusive: 9.2 µM [activator, single point]

Q: For `CCC(=NC(C)c1ccccc1)c1c(O)n(C)c(=O)n(C)c1=O` (stereo not drawn), which Potency is on record?
A: inconclusive: 18.3 µM [inhibitor, partial curve, poor fit]

Q: Which Potency does the source give for `CCOc1cc(C2NCc3ccccc3-n3cccc32)ccc1O` (stereo not drawn) here?
A: inconclusive: 12.6 µM [inhibitor, single point]

Q: Which Potency does the source give for `Cc1cc(=O)[nH]c(SCC(=O)N2C(C)CCCC2C)n1` (stereo not drawn) here?
A: inconclusive: 1 µM [activator, full curve, poor fit]

Q: With `COc1ccc(-c2c3c(nc4sc(C(=O)Nc5ccc(Cl)cc5)c(N)c24)CC(C)(C)CC3=O)cc1` as the compound, how does the “activity change, negative = inhibition” value read?
A: inactive: 10.5% [at 46.1 µM]

Q: Which Potency does the source give for `COc1ccc(CNC(=O)C(=O)NCCC2CCCCN2S(=O)(=O)c2ccccc2)cc1` (stereo not drawn) here?
A: inconclusive: 35.5 µM [inhibitor, single point]

Q: With `Cc1ccc(CN(C(=O)COc2ccc(C(C)(C)C)cc2)C2CCS(=O)(=O)C2)o1` (stereo not drawn) as the compound, how does the Potency read?
A: inconclusive: 28.2 µM [inhibitor, partial curve, poor fit]

Q: Which Potency does the source give for `Nc1cc(=O)[nH]n1C1CCN(c2ccccc2)CC1` here?
A: inconclusive: 2.51 µM [activator, full curve, poor fit]

Q: For `c1ccc(CNC2=NCCS2)cc1`, which “activity change, negative = inhibition” value is on record?
A: inactive: 15.2%

Q: Which Potency does the source give for `CCOc1cc(-c2c(C#N)c(=O)[nH]c3c2c(C)nn3-c2ccc(F)cc2)ccc1O` here?
A: inconclusive: 6.51 µM [activator, single point]

Q: For `CCc1ccccc1NC(=O)c1cccc(Oc2ccc([N+](=O)[O-])cc2Cl)c1`, which Potency is on record?
A: inconclusive: 11.2 µM [inhibitor, partial curve, poor fit]

Q: Which Potency does the source give for `COc1ccc(C)cc1NC(=O)c1nc2nc(C)cc(C)n2n1` here?
A: inconclusive: 0.316 µM [activator, partial curve, poor fit]

Q: Which Potency does the source give for `O=C(NCc1cccs1)c1cnn2cccnc12` here?
A: inconclusive: 16.4 µM [activator, single point]

Q: For `COc1cc(/C=N/NC(=O)CSc2ccccn2)ccc1OC(C)C`, which Potency is on record?
A: inconclusive: 4.47 µM [activator, single point]

Q: For `COc1ccc(CC(=O)NNC(=S)Nc2ccccc2)cc1Br`, which “activity change, negative = inhibition” value is on record?
A: inactive: 11.6%

Q: For `O=C1CC(Nc2ccccc2)C(=O)N1c1ccc(N2CCOCC2)cc1` (stereo not drawn), which “activity change, negative = inhibition” value is on record?
A: inactive: 14.4% [at 46.1 µM]

Q: With `Cc1ccc(NCc2cccn2-c2nnc(N3CCC(C(=O)NCCc4ccccc4)CC3)s2)cc1` as the compound, how does the Potency read?
A: inconclusive: 35.5 µM [inhibitor, single point]

Q: With `O=C(N/C(=C\c1ccccc1)C(=O)N1CCN(CCO)CC1)c1ccccc1` as the compound, how does the Potency read?
A: inconclusive: 1.12 µM [activator, full curve, poor fit]

Q: Which Potency does the source give for `Cc1ccc(S(=O)(=O)c2cc3c(=O)n4ccccc4nc3n(CC3CCCO3)c2=N)cc1C` (stereo not drawn) here?
A: inconclusive: 0.398 µM [activator, partial curve, poor fit]

Q: Which “activity change, negative = inhibition” value does the source give for `COc1ccc(S(=O)(=O)Nc2ccc3c(c2)CCC3)cc1` here?
A: inactive: 1.96% [at 46.1 µM]

Q: With `CCOC(=O)Cc1nnc2c(Nc3ccccc3F)nc3nonc3n12` as the compound, how does the Potency read?
A: inconclusive: 15.8 µM [inhibitor, single point]

Q: Which “activity change, negative = inhibition” value does the source give for `COc1cc(C(=O)OCC(=O)NCc2ccc(F)cc2)ccc1OCC(C)C` here?
A: inactive: -22.5%

Q: Which Potency does the source give for `CCOC(=O)c1cccc(NC(=O)CN(c2ccc(OC)cc2)S(=O)(=O)c2c(C)noc2C)c1` here?
A: inconclusive: 0.251 µM [inhibitor, full curve, poor fit]

Q: Which Potency does the source give for `Cc1cccc(C(=O)Nc2ccc(C(=O)N/N=C/c3ccc(C)o3)cc2)c1` here?
A: inconclusive: 28.2 µM [inhibitor, single point]

Q: With `CN(C)CCCn1c2c(c(SCC(=O)Nc3ccc4c(c3)OCO4)nc1=O)CCC2` as the compound, how does the Potency read?
A: inconclusive: 25.1 µM [inhibitor, single point]

Q: Which Potency does the source give for `CCOc1ccc(NC(=O)Nc2cc(C(C)C)c(O)cc2C)cc1` here?
A: inconclusive: 10 µM [inhibitor, single point]

Q: Which Potency does the source give for `O=C(Cn1nc(C(=O)O)c2ccccc2c1=O)Nc1cccc(S(=O)(=O)N2CCCC2)c1` here?
A: inconclusive: 3.98 µM [inhibitor, full curve]

Q: Which “activity change, negative = inhibition” value does the source give for `CC(Sc1nc2nn(-c3ccccc3)c(=O)c-2c2n1CCCCC2)C(N)=O` (stereo not drawn) here?
A: inactive: 11.7% [at 46.1 µM]

Q: Which Potency does the source give for `CCSc1nnc([C@@H]2CCCN2C(=O)OC(C)(C)C)o1` here?
A: inconclusive: 0.398 µM [inhibitor, full curve, poor fit]

Q: Which “activity change, negative = inhibition” value does the source give for `COc1ccc(-c2cc(C(=O)OCc3ccccn3)c3ccccc3n2)cc1` here?
A: inactive: 4.92%
